According to US20160289298A1:
These are yes or no findings as the source states them, for the method shown. Some entries that bind do so weakly or less than the wild type.

Protein sequences, listed by entry. Tags and fused reporters are not part of them. Residues count along the entry.
UniProt P36894, residues 24-152: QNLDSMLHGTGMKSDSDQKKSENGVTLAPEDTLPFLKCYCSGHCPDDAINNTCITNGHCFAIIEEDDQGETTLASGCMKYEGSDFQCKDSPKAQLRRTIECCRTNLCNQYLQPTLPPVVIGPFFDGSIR

Columns and labels:
GDF7 [1] = molecular target: T1, GDF7 (UniProt Q7Z4P5); experiment: SPR (Biacore), legend of FIG. 7
T1 sequence (looked up): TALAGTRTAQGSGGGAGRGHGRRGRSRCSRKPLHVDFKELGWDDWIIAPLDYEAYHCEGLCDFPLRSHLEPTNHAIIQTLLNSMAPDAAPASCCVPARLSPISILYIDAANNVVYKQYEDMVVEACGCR

GDF6 [2] = molecular target: T2, GDF6 (UniProt Q6KF10); experiment: SPR (Biacore), legend of FIG. 7
T2 sequence (looked up): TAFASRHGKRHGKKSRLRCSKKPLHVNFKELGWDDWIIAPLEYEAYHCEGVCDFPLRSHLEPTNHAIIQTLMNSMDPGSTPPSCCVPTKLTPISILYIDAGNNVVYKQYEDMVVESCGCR

GDF7 [3] = molecular target: T1, GDF7; experiment: SPR (Biacore), receptor-Fc captured by anti-Fc antibody, ligand injected
GDF6 [4] = molecular target: T2, GDF6; experiment: as above

Measured: binding

ALK3-Fc homodimeric complex (from UniProt P36894 24-152) (Fc fusion)
binds: all assays above
